# Reference: patent publication US11247980B2, “Herbicidal uracilpyrid” (BASF SE, priority 2017, dated 2022)
# Some entries share one result that the patent states for a list of compounds.
# Key:
# Assay in all cases: greenhouse experiments, herbicidal activity, post-emergence treatment
# Conditions in all cases: application rate of 16 g/ha, post-emergence method, scale from 0 to 100
# [1] = test system: SETVI; format: in vivo, Setaria viridis
# [2] = test system: AMARE; format: in vivo, Amaranthus retroflexus
# [3] = test system: ECHCG; format: in vivo, Echinocloa crus-galli
# [4] = test system: CHEAL; format: in vivo, Chenopodium album
Structure (SMILES),herbicidal activity against SETVI [1],herbicidal activity against AMARE [2],herbicidal activity against ECHCG [3],herbicidal activity against CHEAL [4]
Cn1c(C(F)(F)F)cc(=O)n(-c2nc(Oc3cccnc3OCC(=O)OCc3ccccc3)c(Cl)cc2F)c1=O [compound 145],very good herbicidal activity (a very good herbicidal activity is given at values of at least 85),very good herbicidal activity (a very good herbicidal activity is given at values of at least 85),very good herbicidal activity (a very good herbicidal activity is given at values of at least 85),very good herbicidal activity (a very good herbicidal activity is given at values of at least 85)
COCCOC(=O)COc1ncccc1Oc1nc(-n2c(=O)cc(C(F)(F)F)n(C)c2=O)c(F)cc1Cl [compound 147],very good herbicidal activity (a very good herbicidal activity is given at values of at least 85),very good herbicidal activity (a very good herbicidal activity is given at values of at least 85),very good herbicidal activity (a very good herbicidal activity is given at values of at least 85),very good herbicidal activity (a very good herbicidal activity is given at values of at least 85)
CC(C)OCCOC(=O)COc1ncccc1Oc1nc(-n2c(=O)cc(C(F)(F)F)n(C)c2=O)c(F)cc1Cl [compound 149],very good herbicidal activity (a very good herbicidal activity is given at values of at least 85),very good herbicidal activity (a very good herbicidal activity is given at values of at least 85),very good herbicidal activity (a very good herbicidal activity is given at values of at least 85),very good herbicidal activity (a very good herbicidal activity is given at values of at least 85)
COCCCOC(=O)COc1ncccc1Oc1nc(-n2c(=O)cc(C(F)(F)F)n(C)c2=O)c(F)cc1Cl [compound 150],very good herbicidal activity (a very good herbicidal activity is given at values of at least 85),very good herbicidal activity (a very good herbicidal activity is given at values of at least 85),very good herbicidal activity (a very good herbicidal activity is given at values of at least 85),very good herbicidal activity (a very good herbicidal activity is given at values of at least 85)
COC(COC(=O)COc1ncccc1Oc1nc(-n2c(=O)cc(C(F)(F)F)n(C)c2=O)c(F)cc1Cl)OC [compound 151],very good herbicidal activity (a very good herbicidal activity is given at values of at least 85),very good herbicidal activity (a very good herbicidal activity is given at values of at least 85),very good herbicidal activity (a very good herbicidal activity is given at values of at least 85),very good herbicidal activity (a very good herbicidal activity is given at values of at least 85)
CCOC(COC(=O)COc1ncccc1Oc1nc(-n2c(=O)cc(C(F)(F)F)n(C)c2=O)c(F)cc1Cl)OCC [compound 152],very good herbicidal activity (a very good herbicidal activity is given at values of at least 85),very good herbicidal activity (a very good herbicidal activity is given at values of at least 85),very good herbicidal activity (a very good herbicidal activity is given at values of at least 85),very good herbicidal activity (a very good herbicidal activity is given at values of at least 85)
COC(=O)C(C)OC(=O)COc1ncccc1Oc1nc(-n2c(=O)cc(C(F)(F)F)n(C)c2=O)c(F)cc1Cl (stereo not shown) [compound 154],very good herbicidal activity (a very good herbicidal activity is given at values of at least 85),very good herbicidal activity (a very good herbicidal activity is given at values of at least 85),very good herbicidal activity (a very good herbicidal activity is given at values of at least 85),very good herbicidal activity (a very good herbicidal activity is given at values of at least 85)
CC(C)S(=O)(=O)NC(=O)COc1ncccc1Oc1nc(-n2c(=O)cc(C(F)(F)F)n(C)c2=O)c(F)cc1Cl [compound 165],very good herbicidal activity (a very good herbicidal activity is given at values of at least 85),very good herbicidal activity (a very good herbicidal activity is given at values of at least 85),very good herbicidal activity (a very good herbicidal activity is given at values of at least 85),very good herbicidal activity (a very good herbicidal activity is given at values of at least 85)
CCOC(=O)COc1ccccc1Sc1nc(-n2c(=O)cc(C(F)(F)F)n(C)c2=O)ccc1Cl [compound 169],very good herbicidal activity (a very good herbicidal activity is given at values of at least 85),very good herbicidal activity (a very good herbicidal activity is given at values of at least 85),very good herbicidal activity (a very good herbicidal activity is given at values of at least 85),very good herbicidal activity (a very good herbicidal activity is given at values of at least 85)
CCOC(=O)COc1ccc(F)cc1Oc1nc(-n2c(=O)cc(C(F)(F)F)n(C)c2=O)c(F)cc1Cl [compound 199],very good herbicidal activity (a very good herbicidal activity is given at values of at least 85),very good herbicidal activity (a very good herbicidal activity is given at values of at least 85),very good herbicidal activity (a very good herbicidal activity is given at values of at least 85),very good herbicidal activity (a very good herbicidal activity is given at values of at least 85)
CCOC(=O)COc1cc(F)ccc1Oc1nc(-n2c(=O)cc(C(F)(F)F)n(C)c2=O)c(F)cc1Cl [compound 201],very good herbicidal activity (a very good herbicidal activity is given at values of at least 85),very good herbicidal activity (a very good herbicidal activity is given at values of at least 85),very good herbicidal activity (a very good herbicidal activity is given at values of at least 85),very good herbicidal activity (a very good herbicidal activity is given at values of at least 85)
CCOC(=O)COc1ccc(Cl)cc1Oc1nc(-n2c(=O)cc(C(F)(F)F)n(C)c2=O)c(F)cc1Cl [compound 207],very good herbicidal activity (a very good herbicidal activity is given at values of at least 85),very good herbicidal activity (a very good herbicidal activity is given at values of at least 85),very good herbicidal activity (a very good herbicidal activity is given at values of at least 85),very good herbicidal activity (a very good herbicidal activity is given at values of at least 85)
CCOC(=O)COc1cccc(Oc2nc(-n3c(=O)cc(C(F)(F)F)n(C)c3=O)c(F)cc2Cl)c1 [compound 228],very good herbicidal activity (a very good herbicidal activity is given at values of at least 85),very good herbicidal activity (a very good herbicidal activity is given at values of at least 85),very good herbicidal activity (a very good herbicidal activity is given at values of at least 85),very good herbicidal activity (a very good herbicidal activity is given at values of at least 85)
